# Assay results as given in patent publication US11162937B2, “Patient selection method for inflammation” (Purdue Research Foundation, priority 2013, dated 2021).
# Tested on: CIA mice
# Assay: Collagen-induced arthritis (CIA) mice: ^99mTc-EC20 radioimaging, arthritis score and paw thickness under anti-inflammatory therapy
# Experimental: Collagen-induced arthritis (CIA) was initiated using established methods on 6-7 week old female DBA/1 mice (Jackson Laboratories) maintained on folate-deficient diet (Harlan-Teklad). Briefly, mice were immunized at the base of the tail with 100 μg bovine type II collagen emulsified in complete Freund's adjuvant (Chondrex, Inc., Redmond, Wash., USA). Mice were then boosted 21 days later with a similar injection of 100 μg bovine type II collagen emulsified in incomplete Freund's adjuvant. After four days, onset of arthritis was synchronized in all mice with an intraperitoneal injection of 25 μg lipopolysaccharide (LPS) dissolved in saline. […] Arthritis scores were assessed every other day by researchers blinded to the various treatment groups, using the following scoring system: 0=normal; 1=mild, but definite redness and swelling of the ankle or wrist, or apparent redness and swelling limited to individual digits, regardless of the number of affected digits; 2=moderate redness and swelling of ankle or wrist; 3=severe redness and swelling of the entire paw including digits; 4=maximally inflamed limb with involvement of multiple joints. A total score for each mouse was calculated by summing the scores for each of the four paws, allowing a maximum possible score of 16 per animal. Paw thickness was measured with calipers every other day starting on the first day of treatment. […]
smiles,measurement,setting,value
COc1ccc2cc([C@H](C)C(=O)O)ccc2c1 [naproxen],uptake of ^99mTc-EC20 in the affected appendages relative to disease control,"day 3 of therapy, 150 μCi ^99mTc-EC20 i.p., imaged after 4 h",no significant difference in uptake
same,"disease symptoms / joint inflammation (arthritis score, paw thickness) relative to disease control",day 11 of therapy,no significant difference
